One may read the Ki as the dissociation constant of the complex between target and ligand, obtained from inhibition or displacement.

By UniProt entry, the sequences of proteins in these tests, tags left out.
UniProt P35372, whole entry: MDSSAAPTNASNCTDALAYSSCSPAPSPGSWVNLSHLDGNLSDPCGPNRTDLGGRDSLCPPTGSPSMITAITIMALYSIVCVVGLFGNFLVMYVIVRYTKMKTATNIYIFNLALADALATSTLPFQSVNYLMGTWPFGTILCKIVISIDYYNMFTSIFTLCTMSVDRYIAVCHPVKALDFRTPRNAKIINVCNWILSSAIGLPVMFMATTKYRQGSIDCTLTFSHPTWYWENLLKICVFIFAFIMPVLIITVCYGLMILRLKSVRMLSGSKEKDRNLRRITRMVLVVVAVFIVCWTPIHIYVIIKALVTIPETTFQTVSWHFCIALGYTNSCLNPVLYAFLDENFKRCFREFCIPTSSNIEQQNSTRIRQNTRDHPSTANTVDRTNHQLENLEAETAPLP

One assay has as its target δ-opioid receptor (Homo sapiens, UniProt P41143). Put plainly: Competitive radioligand binding, δ-opioid receptor. The following applies: Table 1b; for Ki: read-out: Ki (nM) ± SEM, δ, N-oxides.
The next assay concerns the target κ-opioid receptor (Homo sapiens, UniProt P41145). The assay can be described thus: Competitive radioligand binding, κ-opioid receptor ([3H]U69593). The following applies: read-out: Ki (nM) ± SEM, κ; Table 1b, N-oxides.
Another assay concerns the target μ-opioid receptor (Homo sapiens, UniProt P35372). The assay can be described thus: Competitive radioligand binding, μ-opioid receptor ([3H]DAMGO). The following applies: read-out: Ki (nM) ± SEM, μ; Table 1b, N-oxides.

The structures given here were assigned with low confidence; some may be wrong.

As to `CN(C(=O)c1ccc(Br)cc1)[C@@H]1CC[C@@]2(O)[C@H]3Cc4ccc(O)c5c4[C@@]2(CC[N+]3([O-])CC2CC2)[C@H]1O5` (stereo partly drawn), the values for the Ki at δ-opioid receptor, on κ-opioid receptor and at μ-opioid receptor were 5090 nM, 168 nM and 193 nM, respectively.

Turning to `CN(C(=O)c1ccc(C(F)(F)F)cc1)[C@@H]1CC[C@@]2(O)[C@H]3Cc4ccc(O)c5c4[C@@]2(CC[N+]3([O-])CC2CC2)[C@H]1O5` (stereo partly drawn), the figures for the Ki at δ-opioid receptor, at κ-opioid receptor and on μ-opioid receptor were 1640 nM, 195 nM and 378 nM, respectively.

In the case of `CN(C(=O)c1ccc(C(F)(F)F)cc1)[C@H]1CC[C@@]2(O)[C@H]3Cc4ccc(O)c5c4[C@@]2(CC[N+]3([O-])CC2CC2)[C@H]1O5` (stereo partly drawn), the Ki at δ-opioid receptor worked out at 148 nM; on κ-opioid receptor, 4.9 nM; at μ-opioid receptor it was 13.4 nM.

Turning to `CS(=O)(=O)c1ccc(C(=O)N[C@@H]2CC[C@@]3(O)[C@H]4Cc5ccc(O)c6c5[C@@]3(CC[N+]4([O-])CC3CC3)[C@H]2O6)cc1` (stereo partly drawn), the results for the Ki on δ-opioid receptor, on κ-opioid receptor and at μ-opioid receptor were 187 nM, 9.2 nM and 23.8 nM, respectively.

On to `CN(C(=O)c1ccc(Cl)c(Cl)c1)[C@@H]1CC[C@@]2(O)[C@H]3Cc4ccc(O)c5c4[C@@]2(CC[N+]3([O-])CC2CC2)[C@H]1O5` (stereo partly drawn), for which, at δ-opioid receptor (concentration not given), the “Inhibition of agonist binding, δ” value is reported as less than 50% inh. Moreover, the Ki came out at 367 nM on κ-opioid receptor and 196 nM at μ-opioid receptor.

The values are drawn from patent US8778958B2, “Synthesis of metabolically stable agents for alcohol and drug abuse” (priority 2008, dated 2014).
